Reference: PubChem BioAssay AID588590 (National Center for Advancing Translational Sciences (NCATS), 2011)
The campaign covered roughly 390,000 compounds. About 4,000 (1%) were called active. This list was built around the results that the source calls inconclusive (neither active nor inactive); the mix of calls is not that of the screen. Calls follow the shape of the dose curve; as a rule, active = well fitted inhibition curve with a large enough effect; inconclusive = small, poorly fitted or top-dose-only effect, or another doubt; inactive = no such curve, though single readings can be large or run the other way. Potencies beside an inconclusive call are fits to weak or partial responses and may not hold up.

Chains of the proteins cited; added tags and fusions are not shown. Lines headed by an entry give the natural chain unless they say otherwise; changes in a name come on top.
UniProt Q9UNA4: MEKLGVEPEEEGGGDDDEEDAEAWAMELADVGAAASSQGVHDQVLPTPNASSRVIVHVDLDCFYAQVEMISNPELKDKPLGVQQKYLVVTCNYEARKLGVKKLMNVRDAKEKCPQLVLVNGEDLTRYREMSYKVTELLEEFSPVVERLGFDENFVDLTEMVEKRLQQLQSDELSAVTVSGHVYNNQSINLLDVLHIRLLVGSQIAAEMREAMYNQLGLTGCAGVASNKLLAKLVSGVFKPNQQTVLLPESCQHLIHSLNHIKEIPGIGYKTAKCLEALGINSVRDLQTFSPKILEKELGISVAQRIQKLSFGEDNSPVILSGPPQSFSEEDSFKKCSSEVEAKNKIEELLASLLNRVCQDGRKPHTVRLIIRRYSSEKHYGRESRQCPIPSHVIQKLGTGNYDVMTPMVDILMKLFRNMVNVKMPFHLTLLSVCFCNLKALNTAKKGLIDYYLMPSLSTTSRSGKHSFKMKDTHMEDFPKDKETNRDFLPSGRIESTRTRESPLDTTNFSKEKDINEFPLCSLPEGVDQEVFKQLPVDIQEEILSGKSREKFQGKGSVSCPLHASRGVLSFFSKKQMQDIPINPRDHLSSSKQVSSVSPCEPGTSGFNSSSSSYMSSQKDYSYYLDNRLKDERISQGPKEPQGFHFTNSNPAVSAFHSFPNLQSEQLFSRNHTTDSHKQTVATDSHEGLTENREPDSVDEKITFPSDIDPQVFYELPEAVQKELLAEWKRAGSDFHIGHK

target: DNA polymerase iota (Homo sapiens) (UniProt Q9UNA4); test: qHTS for Inhibitors of Polymerase Iota; conditions: Pol iota fluorescent replication assay, 10 min; series mostly up to 115 µM
Summary of the method: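 Fluorescent replication assay read twice, at 0 min and 10 min after adding 50 nM (final) substrate. Enzyme (10 nM) and compounds were first incubated 15 min at room temperature; enzyme-free buffer wells were negative controls.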
Potency is read from the fitted curve at half-maximal effect.

**Q.** CCN1CCN(C(=O)C2CCN(Cc3cc(Cl)ccc3O)CC2)CC1 was tested. Which Potency did it give?
**A.** The Potency was inconclusive: 89.1 µM [inhibitor, partial curve, poor fit].

**Q.** For O=C(OCC(=O)c1c[nH]c2ccccc12)c1cc(Br)ccc1O, which Potency is on record?
**A.** The Potency was “inactive”.

**Q.** With CCOc1ccc(/C=C/C2=Cc3c(sc(NC(=O)CSc4n[nH]c(N)n4)c3C#N)C(C)(C)C2)cc1 as the compound, how does the Potency read?
**A.** Its Potency is inconclusive: 31.6 µM [inhibitor, single point].

**Q.** COc1ccc(CNc2nc(Cl)nc3nc[nH]c23)cc1 was tested. Which Potency did it give?
**A.** The Potency was inconclusive: 89.1 µM [inhibitor, single point].

**Q.** For Oc1cccc(C=Nc2cccc3ccccc23)c1O, which Potency is on record?
**A.** The Potency was active: 11.2 µM.

**Q.** Which Potency does the source give for Cc1ccn2c(=O)cc(COc3cccc(NC(=O)Nc4cccc(Cl)c4C)c3)nc2c1 here?
**A.** Its Potency is “inactive”.

**Q.** Which Potency does the source give for NC(=O)CC(NSc1ccccc1[N+](=O)[O-])C(=O)O (configuration not stated) here?
**A.** Its Potency is inconclusive: 39.8 µM [inhibitor, single point].

**Q.** Which Potency does the source give for CC(=O)Nc1cccc(-n2cc3c(c2-c2ccccc2Cl)c(=O)n(C)c(=O)n3C)c1 here?
**A.** The Potency was inconclusive: 89.1 µM [inhibitor, single point].

**Q.** Which Potency does the source give for CCOC(=O)/C=C1\CN(Cc2ccc(OC)cc2)S(=O)(=O)c2ccc(C(F)(F)F)cc21 here?
**A.** Its Potency is inconclusive: 22.4 µM [inhibitor, partial curve, poor fit].

**Q.** Which Potency does the source give for Cc1cc(C)c2nc3nc(C)c(C)cc3c(N)c2c1 here?
**A.** The Potency was active: 31.6 µM.

**Q.** For O=C(CCCN1C(=O)/C(=C/c2cccs2)SC1=S)Nc1ccccn1, which Potency is on record?
**A.** Its Potency is “inactive”.

**Q.** Which Potency does the source give for CCOC(=O)CNc1nc(C(C)(C)C)nc2c1nnn2Cc1ccccc1 here?
**A.** The Potency was inconclusive: 44.7 µM [inhibitor, partial curve, poor fit].

**Q.** For Cc1c(NC(=O)c2ccc3c(c2)C(=O)N(Cc2ccco2)C3=O)cccc1C(=O)O, which Potency is on record?
**A.** The Potency was inconclusive: 79.4 µM [inhibitor, partial curve, poor fit].

**Q.** Cc1ccc(NCN2C(=O)c3ccccc3C2=O)c(C)c1 was tested. Which Potency did it give?
**A.** The Potency was inconclusive: 79.4 µM [inhibitor, partial curve].

**Q.** With CC(=O)c1ccc(N2CCN(C(=O)c3nn(Cc4ccccc4)c(=O)c4ccccc34)CC2)cc1 as the compound, how does the Potency read?
**A.** Its Potency is inconclusive: 100 µM [inhibitor, single point].

**Q.** How did the Potency turn out when COc1ccc(OC)c(/C=C2\Oc3cc(OCC(=O)N4CCC(C(=O)O)CC4)ccc3C2=O)c1 was run?
**A.** Its Potency is inconclusive: 8.91 µM [inhibitor, partial curve, poor fit].

**Q.** For O=c1[nH]c2c(oc3ccccc32)c(=O)n1Cc1ccccc1, which Potency is on record?
**A.** Its Potency is inconclusive: 89.1 µM [inhibitor, single point].

**Q.** Cc1cccc(-n2ccnc2SCC(=O)Nc2nnc(C)s2)c1 was tested. Which Potency did it give?
**A.** Its Potency is “inactive”.

**Q.** With CC(C)c1ccc(OCC(=O)N(Cc2cccs2)C2CCS(=O)(=O)C2)cc1 (configuration not stated) as the compound, how does the Potency read?
**A.** The Potency was “inactive”.

**Q.** How did the Potency turn out when COc1ccc(CNC(=O)CCc2c(C)c3cc4c(C)c(C)oc4cc3oc2=O)cc1OC was run?
**A.** The Potency was “inactive”.

**Q.** CN(C)Cc1cn(-c2ccccc2)nc1-c1ccccc1 was tested. Which Potency did it give?
**A.** Its Potency is inconclusive: 3.55 µM [inhibitor, partial curve, poor fit].

**Q.** Which Potency does the source give for O=[N+]([O-])c1ccc(O)c(/C=N/NC(=S)Nc2ccc(Cl)cc2Cl)c1 here?
**A.** Its Potency is inconclusive: 89.1 µM [inhibitor, partial curve, poor fit].

**Q.** O=C1OC(Cc2ccccn2)C(O)=C1C1=NCCCCN1 (configuration not stated) was tested. Which Potency did it give?
**A.** The Potency was “inactive”.

**Q.** For COc1cccc(/C=N/n2c(COc3ccccc3)n[nH]c2=S)c1O, which Potency is on record?
**A.** Its Potency is inconclusive: 22.4 µM [inhibitor, partial curve, poor fit].

**Q.** For CC(=O)Nc1ccc(OCC(O)CN2CCN(c3ccc(C)c(Cl)c3)CC2)cc1 (configuration not stated), which Potency is on record?
**A.** The Potency was active: 89.1 µM.

**Q.** For Cc1c(Cl)cnc(NC(=O)COC(=O)c2ccc3ncsc3c2)c1Cl, which Potency is on record?
**A.** Its Potency is inconclusive: 15.8 µM [inhibitor, partial curve, poor fit].

**Q.** How did the Potency turn out when CN(CC(=O)Nc1ccccc1Br)C(=O)c1sccc1-c1ccccc1 was run?
**A.** The Potency was “inactive”.

**Q.** With C=CCn1c(SCC(C)=O)nc2scc(-c3ccc(C)o3)c2c1=O as the compound, how does the Potency read?
**A.** The Potency was “inactive”.

**Q.** CCSc1nc(N)c(C#N)c(-c2ccco2)c1C#N was tested. Which Potency did it give?
**A.** The Potency was inconclusive: 17.8 µM [inhibitor, partial curve, poor fit].

**Q.** O=C(O)C1Sc2[nH]c(=O)sc2C2c3ccc(O)cc3OC(=O)C12 (configuration not stated) was tested. Which Potency did it give?
**A.** Its Potency is inconclusive: 2.51 µM [inhibitor, full curve, poor fit].

**Q.** With COc1c(C)cccc1C(=O)Nc1ccc(Cl)c(-c2nc3cc(C)ccc3o2)c1 as the compound, how does the Potency read?
**A.** The Potency was “inactive”.

**Q.** How did the Potency turn out when O=C1CCCc2c1oc1c2CCCC1 was run?
**A.** The Potency was inconclusive: 35.5 µM [inhibitor, partial curve, poor fit].

**Q.** Which Potency does the source give for C#Cc1cccc(NC(=O)c2ccc(Cl)cc2Cl)c1 here?
**A.** The Potency was inconclusive: 14.1 µM [inhibitor, partial curve].

**Q.** Which Potency does the source give for CCC1CCCCN1C(=O)COC(=O)COc1ccc(Br)cc1 (configuration not stated) here?
**A.** Its Potency is inconclusive: 56.2 µM [inhibitor, partial curve, poor fit].

**Q.** Which Potency does the source give for CCOc1ccccc1NC(=O)Nc1ccc2nc(N3CCN(C)CC3)cc(C)c2c1 here?
**A.** Its Potency is “inactive”.

**Q.** How did the Potency turn out when COc1ccccc1Cn1c(=S)[nH]c2cc(C(=O)NCCN(C)C)ccc2c1=O was run?
**A.** The Potency was inconclusive: 89.1 µM [inhibitor, partial curve, poor fit].

**Q.** Which Potency does the source give for Nc1nccc(-c2ccc(-n3cccc3)cc2)n1 here?
**A.** Its Potency is “inactive”.

**Q.** For CCOc1ccc(-n2ccc(=O)c(C(=O)Nc3ccc(S(=O)(=O)Nc4nccs4)cc3)n2)cc1, which Potency is on record?
**A.** The Potency was inconclusive: 28.2 µM [inhibitor, full curve, poor fit].

**Q.** With CCOc1ccc(C2C(=O)N(C3CCCCCC3)CC(=O)N2Cc2ccc(F)cc2)cc1OC (configuration not stated) as the compound, how does the Potency read?
**A.** Its Potency is “inactive”.

**Q.** How did the Potency turn out when CCN(CC)c1ccc(NC(=O)CN(C)S(=O)(=O)c2cccc3nsnc23)c(C)c1 was run?
**A.** The Potency was “inactive”.

**Q.** With COc1cc(-c2cc(=O)c3c(O)c(OC)c(OC)c(O)c3o2)ccc1O as the compound, how does the Potency read?
**A.** The Potency was inconclusive: 56.2 µM [inhibitor, partial curve, poor fit].

**Q.** With CC(=O)OC[C@H]1O[C@@H](n2ncc(=O)[nH]c2=O)[C@H](OC(C)=O)[C@@H]1OC(C)=O as the compound, how does the Potency read?
**A.** The Potency was “inactive”.

**Q.** With COc1cc(/C=C2\CCCc3c2nc2ccccc2c3C(=O)O)cc(OC)c1O as the compound, how does the Potency read?
**A.** Its Potency is “inactive”.

**Q.** Which Potency does the source give for COc1ccccc1Oc1ccc2c(c1)C(=O)N(c1cccc3ncccc13)C2=O here?
**A.** The Potency was inconclusive: 56.2 µM [inhibitor, partial curve, poor fit].

**Q.** How did the Potency turn out when CCC1(CC)NC(=O)N(CC(=O)Nc2sc3c(c2C(N)=O)CCC3)C1=O was run?
**A.** The Potency was active: 12.6 µM.

**Q.** Which Potency does the source give for COc1cn(CC(=O)Nc2c(C)cc(C)cc2C)c(CN2CCCCC2)cc1=O here?
**A.** Its Potency is “inactive”.

**Q.** How did the Potency turn out when COc1ccc(NC(=O)CN2CCN(c3nc(-c4cccc(OC)c4)cs3)CC2)cc1 was run?
**A.** Its Potency is inconclusive: 22.4 µM [inhibitor, partial curve, poor fit].

**Q.** C#CCN1C=CC(=O)[C@@H](OC(=O)Nc2ccc(Br)cc2)[C@H]1c1ccccc1Br was tested. Which Potency did it give?
**A.** The Potency was inconclusive: 89.1 µM [inhibitor, single point].

**Q.** With COc1cccc(NC(=O)c2ccccc2OCC(=O)Nc2ccc(Br)cc2)c1 as the compound, how does the Potency read?
**A.** Its Potency is “inactive”.

**Q.** With O=C(O)c1ccc(N2C(=O)CC(SC(=Nc3ccccc3)Nc3ccccc3)C2=O)cc1 (configuration not stated) as the compound, how does the Potency read?
**A.** The Potency was “inactive”.

**Q.** Which Potency does the source give for O=C(O)c1cc(S(=O)(=O)N2CCCCC2)ccc1F here?
**A.** Its Potency is inconclusive: 79.4 µM [inhibitor, single point].

**Q.** For Cc1nc(NC2CCCC2)sc1C(=O)N(C)C, which Potency is on record?
**A.** The Potency was inconclusive: 112 µM [inhibitor, single point].

**Q.** Which Potency does the source give for Cc1cc(C(=O)OCC(=O)Nc2nccs2)c2ccccc2n1 here?
**A.** The Potency was inconclusive: 50.1 µM [inhibitor, partial curve, poor fit].

**Q.** Which Potency does the source give for O=C(Oc1ccc(N(C(=O)c2ccncc2)S(=O)(=O)c2ccc(F)cc2)cc1)c1ccncc1 here?
**A.** The Potency was inconclusive: 44.7 µM [inhibitor, single point].

**Q.** For COc1ccccc1NC(=O)c1ccc(NC(=O)CN(C)Cc2ccccc2F)cc1, which Potency is on record?
**A.** Its Potency is inconclusive: 100 µM [inhibitor, single point].

**Q.** For O=C(N/N=C/c1ccc2c(c1)OCO2)/C(=C/c1ccc2c(c1)OCO2)NC(=O)c1ccccc1, which Potency is on record?
**A.** Its Potency is “inactive”.

**Q.** Which Potency does the source give for COc1ccc(-c2nc3ccccc3s2)cc1NC(=O)c1ccc(C#N)cc1F here?
**A.** The Potency was inconclusive: 79.4 µM [inhibitor, partial curve, poor fit].

**Q.** For CCc1nnc(SCC(=O)Nc2ccc(Cl)cc2F)c2cc3occc3n12, which Potency is on record?
**A.** The Potency was “inactive”.

**Q.** With COc1ccc(NC2=C(NC(C)=O)C(=O)c3ccccc3C2=O)cc1 as the compound, how does the Potency read?
**A.** The Potency was “inactive”.

**Q.** With CC(C)C(=O)N(c1cc2sc(=O)oc2c2ccccc12)S(=O)(=O)c1cccs1 as the compound, how does the Potency read?
**A.** Its Potency is inconclusive: 3.55 µM [inhibitor, full curve, poor fit].

**Q.** Which Potency does the source give for O=C(COc1ccc([N+](=O)[O-])cc1)Nc1ccc(N2CCN(C(=O)c3ccco3)CC2)cc1 here?
**A.** Its Potency is inconclusive: 50.1 µM [inhibitor, partial curve, poor fit].

**Q.** For COc1ccc2oc(C(=O)OCC(=O)N(CCC#N)c3ccccc3)c(C)c2c1, which Potency is on record?
**A.** Its Potency is inconclusive: 39.8 µM [inhibitor, partial curve, poor fit].

**Q.** How did the Potency turn out when Cc1cc2nc3n(c2cc1C)CC1CC(C(=O)NCc2cccc(Br)c2)N(C)C31 (configuration not stated) was run?
**A.** The Potency was inconclusive: 8.91 µM [inhibitor, partial curve, poor fit].

**Q.** With NC(=O)CC(NC(=O)Cc1ccc(Br)cc1)c1ccc(NCc2ccccn2)c([N+](=O)[O-])c1 (configuration not stated) as the compound, how does the Potency read?
**A.** The Potency was inconclusive: 39.8 µM [inhibitor, partial curve, poor fit].

**Q.** Which Potency does the source give for Cc1ccc(C(=O)NCC2CCCO2)cc1N1CCCC1=O (configuration not stated) here?
**A.** Its Potency is inconclusive: 3.16 µM [inhibitor, single point].

**Q.** For Cc1cc(C=C2C(=O)c3ccccc3C2=O)c(C)n1C, which Potency is on record?
**A.** The Potency was “inactive”.
